Measured data: PubChem BioAssay AID504804 (Drosophila RNAi Screening Center, 2011)
The screen tested about 19,000 reagents; this is an unselected part of those with a known target gene and a result. In the full data, 47 (0.25%) got an active call. 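Signals are raw, not normalised; exact z-scores behind calls not deposited; actives needed confirmation, so some wells reaching 2 SD are inactive.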 The numbers tell different reagents against one gene apart.

Purpose: 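Fly genes whose loss lessens doxorubicin-driven cell death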 (primary screen)
Cell system: Drosophila Kc cells
Reagents: long dsRNA against Drosophila genes, 0.5 µg dsRNA per well
Duration: 96 h (48 h knock-down, then 48 h drug)
Challenge: doxorubicin 5 µg/ml for 48 h, added 48 h after dsRNA
Measured: 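Luminescent ATP counts per replicate, not normalised, reflecting viable cells after 48 h dsRNA knock-down followed by 48 h of 5 µg/ml doxorubicin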
Direction: raw ATP luminescence: higher = more viable cells, protection from doxorubicin
Active means: 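Active when both duplicate wells lie at least 2 SD above the plate mean and protection is confirmed by rescreening and independent dsRNAs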

After knock-down of CG15740 the results were raw ATP luminescence, replicate 1 = 82130; raw ATP luminescence, replicate 2 = 81680; inactive.
After knock-down of GstD2 (Glutathione S transferase D2), the screen gave raw ATP luminescence, replicate 1 = 65390; raw ATP luminescence, replicate 2 = 55677; inactive.
Against soti (scotti) the deposit lists raw ATP luminescence, replicate 1 = 51617; raw ATP luminescence, replicate 2 = 20643; inactive.
With knock-down of CG31454, the record shows raw ATP luminescence, replicate 1 = 67103; raw ATP luminescence, replicate 2 = 58970; inactive.
CG14573 gave raw ATP luminescence, replicate 1 = 68753; raw ATP luminescence, replicate 2 = 62603; inactive.
With knock-down of tbrd-3, the record shows raw ATP luminescence, replicate 1 = 56930; raw ATP luminescence, replicate 2 = 55273; inactive.
After knock-down of CG6770, the record shows raw ATP luminescence, replicate 1 = 75780; raw ATP luminescence, replicate 2 = 74420; inactive.
After knock-down of CG15408, the screen gave raw ATP luminescence, replicate 1 = 38160; raw ATP luminescence, replicate 2 = 37647; inactive.
For yip2 (yippee interacting protein 2), the entry reads raw ATP luminescence, replicate 1 = 53203; raw ATP luminescence, replicate 2 = 58723; inactive.
Knock-down of MED14 (Mediator complex subunit 14) resulted in: raw ATP luminescence, replicate 1 = 43560; raw ATP luminescence, replicate 2 = 69477; inactive.
Knock-down of Gyc89Da (Guanylyl cyclase at 89Da) resulted in: raw ATP luminescence, replicate 1 = 93010; raw ATP luminescence, replicate 2 = 94340; inactive.
Depletion of CG10909 gave: raw ATP luminescence, replicate 1 = 48673; raw ATP luminescence, replicate 2 = 41703; inactive.
Knock-down of GC1 gave: raw ATP luminescence, replicate 1 = 49300; raw ATP luminescence, replicate 2 = 37050; inactive.
CG7384 gave raw ATP luminescence, replicate 1 = 1.03e5; raw ATP luminescence, replicate 2 = 90397; inactive.
Depletion of abd-A (abdominal A) #1 resulted in: raw ATP luminescence, replicate 1 = 65470; raw ATP luminescence, replicate 2 = 74806; inactive.
Against abd-A (abdominal A) #2, the values are raw ATP luminescence, replicate 1 = 14780; raw ATP luminescence, replicate 2 = 15580; inactive.
Against CG17826, the entry reads raw ATP luminescence, replicate 1 = 79093; raw ATP luminescence, replicate 2 = 68587; inactive.
lncRNA:CR32658 (long non-coding RNA:CR32658) scored raw ATP luminescence, replicate 1 = 3.39e5; raw ATP luminescence, replicate 2 = 3.15e5; inactive.
Against nyo (nyobe) #1, the values are raw ATP luminescence, replicate 1 = 45670; raw ATP luminescence, replicate 2 = 48400; inactive.
Against nyo (nyobe) #2, the values are raw ATP luminescence, replicate 1 = 39690; raw ATP luminescence, replicate 2 = 43850; inactive.
Silencing of CG4597 gave: raw ATP luminescence, replicate 1 = 74873; raw ATP luminescence, replicate 2 = 82937; inactive.
Silencing of RhoGAP18B (Rho GTPase activating protein at 18B) #1 resulted in: raw ATP luminescence, replicate 1 = 3.52e5; raw ATP luminescence, replicate 2 = 3.59e5; inactive.
Silencing of RhoGAP18B (Rho GTPase activating protein at 18B) #2 resulted in: raw ATP luminescence, replicate 1 = 5.07e5; raw ATP luminescence, replicate 2 = 3.52e5; inactive.
Silencing of RhoGAP18B (Rho GTPase activating protein at 18B) #3 gave: raw ATP luminescence, replicate 1 = 3.81e5; raw ATP luminescence, replicate 2 = 3.69e5; inactive.
RhoGAP18B (Rho GTPase activating protein at 18B) #4 showed raw ATP luminescence, replicate 1 = 2.95e5; raw ATP luminescence, replicate 2 = 2.88e5; inactive.
After knock-down of ich (ichor) #1, the record shows raw ATP luminescence, replicate 1 = 73023; raw ATP luminescence, replicate 2 = 53543; inactive.
Against ich (ichor) #2, the entry reads raw ATP luminescence, replicate 1 = 68997; raw ATP luminescence, replicate 2 = 79520; inactive.
Drep3 (DNA fragmentation factor-related protein 3) #1 showed raw ATP luminescence, replicate 1 = 33850; raw ATP luminescence, replicate 2 = 26043; inactive.
For Drep3 (DNA fragmentation factor-related protein 3) #2 the deposit lists raw ATP luminescence, replicate 1 = 2.38e5; raw ATP luminescence, replicate 2 = 2.41e5; inactive.
With knock-down of CG8180, the screen gave raw ATP luminescence, replicate 1 = 71523; raw ATP luminescence, replicate 2 = 71063; inactive.
With knock-down of Acsx1L (Acyl-CoA synthetase X1 L) the results were raw ATP luminescence, replicate 1 = 47610; raw ATP luminescence, replicate 2 = 39710; inactive.
Depletion of Msr-110 resulted in: raw ATP luminescence, replicate 1 = 47923; raw ATP luminescence, replicate 2 = 54977; inactive.
For Tbcb (Tubulin-binding cofactor B), the values are raw ATP luminescence, replicate 1 = 57877; raw ATP luminescence, replicate 2 = 60397; inactive.
ppk9 (pickpocket 9) #1 gave raw ATP luminescence, replicate 1 = 46630; raw ATP luminescence, replicate 2 = 39183; inactive.
Against ppk9 (pickpocket 9) #2, the values are raw ATP luminescence, replicate 1 = 41107; raw ATP luminescence, replicate 2 = 50927; inactive.
After knock-down of CG32483, the screen gave raw ATP luminescence, replicate 1 = 1.53e5; raw ATP luminescence, replicate 2 = 1.73e5; inactive.

Quoted from the listing, 2 entries:
CG15740: raw ATP luminescence, replicate 1 = 82130; raw ATP luminescence, replicate 2 = 81680; outcome = inactive
GstD2 (Glutathione S transferase D2): raw ATP luminescence, replicate 1 = 65390; raw ATP luminescence, replicate 2 = 55677; outcome = inactive
